# From PubChem BioAssay AID540276 (National Center for Advancing Translational Sciences (NCATS), 2011)
# Hit rate of the full screen: of about 300,000 compounds, about 5,400 (1.8%) were called active. Inconclusive results, whose numbers are uncertain, are shown with a selection of clear calls. Calls come from the whole dose curve; tested in HEK293 cells. Potencies beside an inconclusive call are fits to weak or partial responses and may not hold up.
# Experiment: qHTS for inhibitors of binding or entry into cells for Marburg Virus
# Settings: Marburg virus pseudotyped entry inhibition, cell reporter; series mostly up to 37.8 µM
# Potency is the fitted concentration of half-maximal effect.
row,SMILES,Potency
1,Cc1ccc(S(=O)(=O)N2CCC(=O)N(C(COCc3cccc(C(F)(F)F)c3)C(C)C)CC2)cc1 (stereo not drawn),active: 13 µM
2,C=CCNC(=O)/C(=C/c1cccc([N+](=O)[O-])c1)NC(=O)c1ccccc1,"inconclusive: 0.794 µM [inhibitor, full curve, poor fit]"
3,C=CCn1c(COc2ccc(Cl)cc2)nnc1SCc1ccc(C#N)cc1,"inconclusive: 29.1 µM [inhibitor, single point]"
4,CCS(=O)(=O)N1CCN(c2ccnc3cc(Cl)ccc23)CC1,"inconclusive: 1.26 µM [inhibitor, single point]"
5,CC(C)OCCCN(CC(O)c1ccccc1)CC(O)c1ccccc1 (stereo not drawn),inactive
6,COc1ccc(CCNC(=O)COc2ccc(S(=O)(=O)NC(C)C)cc2)cc1OC,inactive
7,COc1ccc(OC)c(N=Cc2c(O)n(Cc3ccccc3)c(=S)[nH]c2=O)c1,"inconclusive: 3.98 µM [activator, full curve, poor fit]"
8,COc1ccc(Cn2c(SCc3ccc(C(=O)NCc4cccs4)cc3)nc3cccnc32)cc1,"inconclusive: 5.62 µM [inhibitor, single point]"
9,COc1ccc(-c2cc(-c3ccccc3)c(C#N)c(S(C)(=O)=O)n2)cc1,"inconclusive: 11.2 µM [inhibitor, partial curve, poor fit]"
10,CC1(C)O[C@H]2[C@@H](O1)[C@@H](C(=O)Nc1ccc(F)c(F)c1)O[C@@H]1OC(C)(C)O[C@@H]12,inactive
11,CCN(CC)CCn1c(NCc2cccc(OC)c2OC)nc2ccccc21,"inconclusive: 7.08 µM [inhibitor, partial curve, poor fit]"
12,CCCCc1cc(=O)oc2c(CN3CCN(C)CC3)c(O)ccc12,inactive
13,O=C(COC(=O)c1cncc(Br)c1)NC1CCCCC1,inactive
14,COc1ccc(-n2ncc3c(SCC(=O)N4CCN(c5ccccc5OC)CC4)ncnc32)cc1,"inconclusive: 6.51 µM [inhibitor, single point]"
15,O=c1[nH]c(=O)n(Cc2ccco2)c2c1C(C(F)(F)F)(C(F)(F)F)N=C(c1ccc(F)cc1)N2,"inconclusive: 18.3 µM [inhibitor, partial curve, poor fit]"
16,CCc1cccc(C)c1NC(=O)CSc1nc2ccccc2nc1N1CCOCC1,"inconclusive: 22.4 µM [inhibitor, partial curve, poor fit]"
17,O=C(Nc1cccc(S(=O)(=O)N2CCOCC2)c1)c1ccc(Cl)c([N+](=O)[O-])c1,"inconclusive: 35.5 µM [inhibitor, single point]"
18,N=c1n(CCN2CCCCC2)c2ccccc2n1CC(O)COc1ccc(Cl)cc1Cl (stereo not drawn),active: 5.62 µM

# Some of the entries above, reformatted.
row	SMILES	Potency
16	CCc1cccc(C)c1NC(=O)CSc1nc2ccccc2nc1N1CCOCC1	inconclusive: 22.4 µM [inhibitor, partial curve, poor fit]
17	O=C(Nc1cccc(S(=O)(=O)N2CCOCC2)c1)c1ccc(Cl)c([N+](=O)[O-])c1	inconclusive: 35.5 µM [inhibitor, single point]
